# Measurements published in patent publication US10154991B2, “Anesthetic compounds and related methods of use” (priority 2012, dated 2018).
# Some entries share one result that the patent states for a list of compounds.
# System: adrenal cortisol production
# Conditions: Study 2, dogs, 120-minute infusion
# Experimental: Dexamethasone (0.01 mg/kg) was administered two hours before the first administration of ACTH and re-administered every 2 hours to maintain suppression. Dexamethasone pretreatment suppresses the hypothalamo-hypophyseal axis to prevent endogenous ACTH release and subsequent adrenocortical steroid secretion. […] Synthetic ACTH (Synacthen, 250 μg) was then administered at times after test substance administration to evaluate the effects of the test substance on the release of the adrenal steroid, cortisol.
# All study methods described for Study 1 were repeated, except the ACTH administration at the end of infusion was omitted.
structure (smiles),measurement,value
"COC(=O)C1(OC(=O)c2cncn2[C@H](C)c2ccccc2)CC1 [Cyclopropyl- methoxycarbonyl metomidate, cyclopropyl-methoxycarbonyl metomidate]",time to normal cortisol levels after cessation of administration,≤ 120 min
